Source: PubChem BioAssay AID1259405 (NCATS, 2018)
Here is an unselected part of about 50,000 deposited reagents. In the full data, about 4,000 (8%) got an active call. 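Mouse siRNA library applied to hamster cells; one well for each siRNA.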 A number with no mark means an inactive call. No sequences are given here.

Screen: 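Knock-downs that lift recombinant protein yield in hamster ovary cells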 (primary screen)
System: Chinese hamster CHO-K1 ovary cells with stable secreted eGFP expression
Reagents: single siRNA against mouse genes, 0.8 pmol siRNA per well (2 µl of 400 nM stock)
Duration: 3 days
Read-out: 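Percent of the per-plate non-targeting control median for intracellular GFP per well by laser scanning cytometry and for cell viability by ATP luminescence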
Reading the numbers: GFP, % of control: higher = more GFP per well, higher productivity; viability (ATP), % of control: higher = more viable cells (more ATP)
Hit rule: 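Called active when intracellular GFP, relative to negative control, is at or above 120%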

| gene symbol | PubChem SID | GFP, % of control | viability (ATP), % of control |
| --- | --- | --- | --- |
| Slc25a33 (GeneID 70556) | SID363570275 | 152 (active) | 133 |
| Slc25a33 (GeneID 70556) | SID363576611 | 86.9 | 103 |
| Slc25a33 (GeneID 70556) | SID363579779 | 75.2 | 88.4 |
| Cald1 (GeneID 109624) | SID363541063 | 98.9 | 91.4 |
| Cald1 (GeneID 109624) | SID363555690 | 69.4 | 78.2 |
| Cald1 (GeneID 109624) | SID363565979 | 66.7 | 84.6 |
| Sptlc2 (GeneID 20773) | SID363570499 | 61.3 | 66.3 |
| Sptlc2 (GeneID 20773) | SID363579299 | 58.5 | 49.3 |
| Sptlc2 (GeneID 20773) | SID363583171 | 90 | 82.8 |
| Mllt1 (GeneID 64144) | SID363573658 | 129 (active) | 78.9 |
| Mllt1 (GeneID 64144) | SID363581402 | 106 | 69.9 |
| Mllt1 (GeneID 64144) | SID363583866 | 154 (active) | 121 |
| Ywhah (GeneID 22629) | SID363573160 | 130 (active) | 116 |
| Ywhah (GeneID 22629) | SID363577736 | 56.1 | 61.5 |
| Ywhah (GeneID 22629) | SID363581256 | 49.7 | 64.1 |
| Sall3 (GeneID 20689) | SID363573234 | 74 | 77 |
| Sall3 (GeneID 20689) | SID363588473 | 44.1 | 42.5 |
| Gpr61 (GeneID 229714) | SID363571278 | 82.4 | 89.6 |
| Gpr61 (GeneID 229714) | SID363571630 | 94.8 | 84.3 |
| Gpr61 (GeneID 229714) | SID363571982 | 68.9 | 69.5 |
| Slc44a1 (GeneID 100434) | SID363547670 | 137 (active) | 71.8 |
| Slc44a1 (GeneID 100434) | SID363558439 | 26.5 | 14.6 |
| Slc44a1 (GeneID 100434) | SID363560197 | 77.8 | 64.4 |
| Mcm2 (GeneID 17216) | SID363569971 | 114 | 96.1 |
| Mcm2 (GeneID 17216) | SID363577011 | 43.1 | 48.7 |
| Mcm2 (GeneID 17216) | SID363578419 | 69.4 | 73.9 |
| Lyrm1 (GeneID 73919) | SID363542324 | 77.4 | 83.2 |
| Lyrm1 (GeneID 73919) | SID363551815 | 78.6 | 74.9 |
| Lyrm1 (GeneID 73919) | SID363559420 | 80.5 | 81.2 |
| Adgrf3 (GeneID 381628) | SID363571132 | 87.9 | 75.1 |
| Adgrf3 (GeneID 381628) | SID363571484 | 57.5 | 83.8 |
| Adgrf3 (GeneID 381628) | SID363571836 | 50.1 | 57.4 |
| Gzme (GeneID 14942) | SID363547216 | 180 (active) | 92.6 |
| Gzme (GeneID 14942) | SID363557985 | 65.8 | 53.4 |
| Gzme (GeneID 14942) | SID363559743 | 69.7 | 69.6 |

Part of the list above in another layout:
gene symbol,PubChem SID,"GFP, % of control","viability (ATP), % of control"
Lyrm1 (GeneID 73919),SID363559420,80.5,81.2
Adgrf3 (GeneID 381628),SID363571132,87.9,75.1
Adgrf3 (GeneID 381628),SID363571484,57.5,83.8
Adgrf3 (GeneID 381628),SID363571836,50.1,57.4
Gzme (GeneID 14942),SID363547216,180 (active),92.6
